PubChem BioAssay AID720505, Drosophila RNAi Screening Center, 2013

- Screen: 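Knock-downs that reduce calcium influx once internal stores are emptied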 (primary screen)
- Cells: Drosophila S2R+ cells
- Knock-down reagent: long dsRNA against Drosophila genes
- Conditions: thapsigargin (2 µM) in calcium-free buffer to empty internal stores, then 2 mM calcium added back
- Detection: 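Stores emptied by 2 µM thapsigargin without calcium, then 2 mM calcium re-added; fluo-4 fluorescence followed by FLIPR in 384-well plates, per-well averaged endpoint, raw; two screen passes, some wells retested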
- Scale: calcium signal and retest calcium signal: higher = more calcium entry after store depletion
- Call rule: 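Knock-downs counted as hits when calcium entry dropped relative to STIM1 positive and Rho1 negative controls present on each plate; roughly 1500 genes called, with reductions of differing size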
- Meaning of the calls: active = called as lowering calcium entry; inactive = not called
The deposit covers about 20,000 reagents; shown is an unselected part of those with a known target gene and a result. Over the whole deposit, about 2,100 (10%) were called active. 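Raw plate signals without normalisation; calls rest on control-based scores that were not deposited; replicate 2 separates called from uncalled poorly.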 Entries without a mark were called inactive. Not stated in the record: the amount of reagent, the time to read-out.

Against CG7579 [DRSC10885], the values are calcium signal, replicate 1 = 82.5; calcium signal, replicate 2 = 186.
Against CG5916 [DRSC15917], the entry reads calcium signal, replicate 1 = 102; calcium signal, replicate 2 = 292.
Knock-down of Mcm3 (Minichromosome maintenance 3) [DRSC18679] gave: calcium signal, replicate 1 = 153; calcium signal, replicate 2 = 70.5.
Knock-down of CG33475 [DRSC22943] came out at: calcium signal, replicate 1 = 137; calcium signal, replicate 2 = 187.
After knock-down of CG33116 [DRSC02045], the record shows calcium signal, replicate 1 = 93; calcium signal, replicate 2 = 119.
Against CG31559 [DRSC12172], the entry reads calcium signal, replicate 1 = 115; calcium signal, replicate 2 = 152.
Knock-down of CG31559 [DRSC12270] came out at: calcium signal, replicate 1 = 92.1; calcium signal, replicate 2 = 138.
Knock-down of Ltn1 (Listerin E3 ubiquitin protein ligase 1) [DRSC11056] resulted in: calcium signal, replicate 1 = 107; calcium signal, replicate 2 = 111.
Ltn1 (Listerin E3 ubiquitin protein ligase 1) [DRSC11058] scored calcium signal, replicate 1 = 109; calcium signal, replicate 2 = 141.
Knock-down of l(1)G0196 (lethal (1) G0196) [DRSC20591] resulted in: calcium signal, replicate 1 = 115; calcium signal, replicate 2 = 13249.
Silencing of l(1)G0196 (lethal (1) G0196) [DRSC20629] came out at: calcium signal, replicate 1 = 144; calcium signal, replicate 2 = 115.
CG15653 [DRSC04244] gave calcium signal, replicate 1 = 71.4; calcium signal, replicate 2 = 174.
Against Syx13 (Syntaxin 13) [DRSC09836] the deposit lists calcium signal, replicate 1 = 92.3; calcium signal, replicate 2 = 113.
Silencing of Smug [DRSC15762] gave: calcium signal, replicate 1 = 122; calcium signal, replicate 2 = 156.
Cpr76Bd (Cuticular protein 76Bd) [DRSC11063] scored calcium signal, replicate 1 = 70.8 (active); calcium signal, replicate 2 = 133.

Entries listed so far whose target name starts with S or s (2):
Syx13 (Syntaxin 13) [DRSC09836] — calcium signal, replicate 1: 92.3; calcium signal, replicate 2: 113
Smug [DRSC15762] — calcium signal, replicate 1: 122; calcium signal, replicate 2: 156

Next results:
For CG18547 [DRSC15345], the values are calcium signal, replicate 1 = 68.2 (active); calcium signal, replicate 2 = 191.
Silencing of CG42266 [DRSC21577] resulted in: calcium signal, replicate 1 = 147; calcium signal, replicate 2 = 105.
Silencing of CG42266 [DRSC21957] gave: calcium signal, replicate 1 = 103; calcium signal, replicate 2 = 219.
For Rchy1 (Ring finger and CHY zinc finger domain containing 1) [DRSC02542], the entry reads calcium signal, replicate 1 = 114; calcium signal, replicate 2 = 81.1.
Rchy1 (Ring finger and CHY zinc finger domain containing 1) [DRSC23118] showed calcium signal, replicate 1 = 119; calcium signal, replicate 2 = 170.
With knock-down of slo (slowpoke) [DRSC17057] the results were calcium signal, replicate 1 = 180; calcium signal, replicate 2 = 203.
Against slo (slowpoke) [DRSC21896] the deposit lists calcium signal, replicate 1 = 122; calcium signal, replicate 2 = 230.
slo (slowpoke) [DRSC23295] gave calcium signal, replicate 1 = 111; calcium signal, replicate 2 = 146.
Against CG9393 [DRSC16486], the values are calcium signal, replicate 1 = 84.9; calcium signal, replicate 2 = 157.
With knock-down of Wee1 (Wee1 kinase) [DRSC03635] the results were calcium signal, replicate 1 = 189; calcium signal, replicate 2 = 116.
Against Wee1 (Wee1 kinase) [DRSC23318], the entry reads calcium signal, replicate 1 = 112; calcium signal, replicate 2 = 124.
Against betaTub85D (beta-Tubulin at 85D) [DRSC16910] the deposit lists calcium signal, replicate 1 = 56.7 (active); calcium signal, replicate 2 = 81.2.
CG3253 [DRSC04350] scored calcium signal, replicate 1 = 134; calcium signal, replicate 2 = 81.3; retest calcium signal, replicate 1 = 69.5; retest calcium signal, replicate 2 = 101.
